Protein sequences can lack the tags named with them.

In this data set the target is T1, FUS∆LCD (UniProt P35637).
T1 sequence (looked up): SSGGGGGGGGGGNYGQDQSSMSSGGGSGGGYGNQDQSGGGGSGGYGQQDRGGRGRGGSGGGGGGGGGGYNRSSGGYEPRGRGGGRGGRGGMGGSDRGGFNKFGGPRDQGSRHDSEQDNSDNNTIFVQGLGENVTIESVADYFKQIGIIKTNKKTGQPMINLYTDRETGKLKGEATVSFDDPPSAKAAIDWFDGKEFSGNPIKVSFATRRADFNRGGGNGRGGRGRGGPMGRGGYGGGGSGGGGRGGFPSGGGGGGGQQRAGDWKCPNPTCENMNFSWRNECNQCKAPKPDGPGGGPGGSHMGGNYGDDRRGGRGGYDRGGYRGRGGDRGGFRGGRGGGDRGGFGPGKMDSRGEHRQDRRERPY
The data set can be described thus: fluorescence titration (Cy3-protein intensity). The following applies: apparent Kd, concentration as dNMP (nucleotides), not molecules, Hill fit n 3.32; concentrations are in nucleotide units. Poly(ADP-ribose); recombinant protein; residues 164-526; protein details: Cy3 label (sulfo-cyanine 3 NHS ester); single-stranded DNA.

As for “GGGTTGGTTTGCGCATTCACAGTTCTCG [ssDNA (29 nt)]”, the Kd amounted to 1150 nM.

The record behind these values is article PMC9654039, “FUS Microphase Separation: Regulation by Nucleic Acid Polymers and DNA Repair Proteins”.
